{
  "source": "PubChem BioAssay AID1347076",
  "about": "(National Center for Advancing Translational Sciences (NCATS), 2019)",
  "note": "About 13,000 (3.2%) of roughly 400,000 compounds were called active. The inconclusive results got no clear call from the source; some entries with a clear call stand among them for comparison. Calls follow the shape of the dose curve; as a rule, active = well fitted cell-killing curve with a large enough effect; inconclusive = small, poorly fitted or top-dose-only effect, or effect the other way; inactive = flat fitted curve, though single readings scatter. A potency beside an inconclusive call is a rough fit, not a confirmed value. % is scaled to controls: 0 for no effect and ±100 for the full control effect; potency is read from the fitted curve at half-maximal effect.",
  "data": [
    {"experiment": "qHTS assay for MDR1-selective chemotherapeutics: Primary screen using the drug-selected MDR subline cells KB-V1; also: nearly all actives have a fitted effect of over 60% in size", "settings": "KB-V1 MDR cells viability, CellTiter-Glo, 72 h; activity change, negative = cytotoxicity: at 46.1 µM (top of the series)", "procedure,_shortened": "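qHTS viability screen in drug-selected KB-V1 MDR cells: 72 h compound treatment at 37 degrees C, ATP luminescence end point.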", "values": [
      {"smiles": "CC(C)OC(=O)c1c(-c2ccc(C(C)C)cc2)csc1NC(=O)C1CCCO1", "note": "(stereo not drawn)", "Potency": "inconclusive: 29.1 µM [cytotoxic, single point]"},
      {"smiles": "Cc1ccc2nc(C3CCCN(C(=S)Nc4ccccc4C)C3)[nH]c2c1", "note": "(stereo not drawn)", "activity change, negative = cytotoxicity": "inactive: -6.2%"},
      {"smiles": "COc1ccc(NC(=O)Nc2ccc(Cc3ccncc3)cc2)cc1OC", "activity change, negative = cytotoxicity": "inactive: -26%"},
      {"smiles": "NN=C1c2ccccc2-c2ccc(N)cc21", "activity change, negative = cytotoxicity": "inactive: 7.4%"},
      {"smiles": "CN(CC(=O)Nc1cccc(F)c1)CC(=O)Nc1cccc([N+](=O)[O-])c1", "Potency": "active: 11.6 µM"},
      {"smiles": "COc1cc(CNCc2ccc(OC)cc2OC)cc(OC)c1", "Potency": "inconclusive: 4.61 µM [cytotoxic, full curve, poor fit]"},
      {"smiles": "O=C(COc1ccc(F)cc1Cl)N1CCN(C(=O)c2cccs2)CC1", "Potency": "inconclusive: 20.6 µM [cytotoxic, partial curve, poor fit]"},
      {"smiles": "COc1ccccc1OCC(O)Cn1c(=N)n(Cc2ccccc2)c2ccccc21", "note": "(stereo not drawn)", "Potency": "inconclusive: 25.9 µM [cytotoxic, single point]"},
      {"smiles": "CC(C)(C)OC(=O)N1CCC(CC2CC(c3ccc(Cl)cc3)=NO2)(C(=O)NCC2CCCCC2)CC1", "note": "(stereo not drawn)", "activity change, negative = cytotoxicity": "inactive: -24.5%"},
      {"smiles": "O=C(Oc1ccccc1N1CCOCC1)c1sccc1Br", "Potency": "inconclusive: 1.64 µM [rising, full curve]"},
      {"smiles": "COc1ccc(CC(=O)Nc2c(C(=O)N3CCN(c4ccccc4F)CC3)oc3ccccc23)cc1OC", "Potency": "inconclusive: 29.1 µM [cytotoxic, single point]"},
      {"smiles": "N#CN=C1SCCS1", "activity change, negative = cytotoxicity": "inactive: 0%"},
      {"smiles": "Cc1cccc(C)c1N1CCN(S(=O)(=O)N2CCOCC2)CC1", "Potency": "active: 16.4 µM"},
      {"smiles": "CCC(CC)C(C(=O)NCc1ccccc1)N1CCN(CCN2CCOCC2)CC1", "note": "(stereo not drawn)", "activity change, negative = cytotoxicity": "inactive: -40.5%"},
      {"smiles": "O=C1N/C(=C/c2cccn2-c2ccccc2)C(=O)N1Cc1ccc(F)cc1", "activity change, negative = cytotoxicity": "inactive: 14.1%"},
      {"smiles": "CC(C)c1ccc(S(=O)(=O)N2CCN(CC(=O)Nc3ccc4c(c3)OCO4)CC2)cc1", "Potency": "inconclusive: 10.3 µM [cytotoxic, partial curve]"},
      {"smiles": "NCCCCCc1nnc(SCc2ccc(Cl)cc2Cl)o1", "activity change, negative = cytotoxicity": "inactive: -1.67%"},
      {"smiles": "OC[C@@H]1CN(Cc2cccc3ccccc23)C[C@H](n2cnc3c(NCc4ccco4)ncnc32)O1", "Potency": "inconclusive: 29.1 µM [cytotoxic, single point]"},
      {"smiles": "c1ccc2c(c1)[nH]c1c(N3CCCC3)ncnc12", "Potency": "inconclusive: 4.11 µM [cytotoxic, full curve]"},
      {"smiles": "COc1ccc(C(C(=O)NC2CCCCC2)N(C(=O)CCl)c2ccc(Cl)cc2)cc1", "note": "(stereo not drawn)", "Potency": "inconclusive: 3.66 µM [cytotoxic, partial curve, poor fit]"},
      {"smiles": "N/C(=N\\OC(=O)c1cc([N+](=O)[O-])ccc1Cl)c1cccnc1", "Potency": "inconclusive: 29.1 µM [cytotoxic, single point]"},
      {"smiles": "CSc1nccc(-c2sc(SC)c(C#N)c2-c2ccccc2)n1", "Potency": "inconclusive: 6.51 µM [cytotoxic, partial curve, poor fit]"},
      {"smiles": "Cc1ccccc1N1CCN(C(=O)c2cc(C3CC3)nn2-c2ccccc2)CC1", "activity change, negative = cytotoxicity": "inactive: -30%"},
      {"smiles": "Cc1ccc(Nc2c(-c3ccco3)nc3ccc(C)cn23)cc1", "activity change, negative = cytotoxicity": "inactive: 1.55%"},
      {"smiles": "CCN(C(=O)c1cc2c(=O)oc3ccccc3c2s1)c1cccc(C(F)(F)F)c1", "activity change, negative = cytotoxicity": "inactive: -23.6%"},
      {"smiles": "COc1ccccc1NS(=O)(=O)c1ccc2oc(SCc3ccc(C#N)cc3)nc2c1", "Potency": "active: 9.2 µM"},
      {"smiles": "COc1ccc(/C=C2\\SC(=S)N(CCCC(=O)Nc3cccc(C(=O)O)c3)C2=O)cc1OC", "Potency": "inconclusive: 20.6 µM [rising, single point]"},
      {"smiles": "O=C(O)CSc1cc(NS(=O)(=O)c2cccc([N+](=O)[O-])c2)c2ccccc2c1O", "Potency": "active: 5.8 µM"},
      {"smiles": "COc1ccc(-c2nc(NC(=O)C3CC(=O)N(c4ccc5c(c4)OCCO5)C3)sc2C)cc1", "note": "(stereo not drawn)", "Potency": "inconclusive: 18.4 µM [cytotoxic, partial curve, poor fit]"},
      {"smiles": "Cc1nc(N2CCN(C(=O)c3ccco3)CC2)c2c3c(sc2n1)CCC3", "Potency": "active: 8.2 µM"},
      {"smiles": "O=S(=O)(c1ccccc1)c1cccc(S(=O)(=O)N2CCCCC2)c1", "Potency": "inconclusive: 8.2 µM [cytotoxic, partial curve]"},
      {"smiles": "Cn1cc(CNCc2ccc(OC(F)(F)F)cc2)c(-c2ccc3c(c2)OCCO3)n1", "Potency": "inconclusive: 2.91 µM [cytotoxic, partial curve, poor fit]"},
      {"smiles": "Cc1cc(C)c(S(=O)(=O)Nc2ccc(O)cc2)c(C)c1", "Potency": "inconclusive: 29.1 µM [cytotoxic, single point]"},
      {"smiles": "O=C1C2=C(Nc3ccccc3SC2c2ccc(C(F)(F)F)cc2)c2ccccc21", "note": "(stereo not drawn)", "Potency": "active: 16.4 µM"},
      {"smiles": "CC(C(=O)Nc1ccc(C(F)(F)F)cc1)N(C)CC(=O)N1CCN(Cc2ccccc2)CC1", "note": "(stereo not drawn)", "Potency": "inconclusive: 18.4 µM [cytotoxic, single point]"},
      {"smiles": "O=C(Nc1ccc(SC(F)F)cc1)C1=CC=CN2CCS(=O)(=O)N=C12", "Potency": "inconclusive: 0.0092 µM [rising, full curve]"},
      {"smiles": "Cc1ccccc1-c1cc(C(=O)NCc2ccco2)nn1CC1CC(c2cccc([N+](=O)[O-])c2)=NO1", "note": "(stereo not drawn)", "Potency": "inconclusive: 14.6 µM [cytotoxic, partial curve]"},
      {"smiles": "O=C(CN1C=NS(=O)(=O)c2ccccc21)Nc1ccc(Br)cc1", "Potency": "inconclusive: 29.1 µM [rising, single point]"},
      {"smiles": "O=C(Nc1ccccc1)/C(=C/c1ccc([N+](=O)[O-])cc1)NC(=O)c1ccco1", "activity change, negative = cytotoxicity": "inactive: -0.306%"},
      {"smiles": "Nc1ccccc1C(=O)Nc1ccc(Cl)cc1Cl", "Potency": "inconclusive: 18.4 µM [cytotoxic, single point]"},
      {"smiles": "CC(C)(C)c1cc(C(=O)Nc2ccccc2)ccn1", "Potency": "active: 20.6 µM"},
      {"smiles": "NC(=S)N/N=C/c1ccc2c(c1)OCCO2", "Potency": "inconclusive: 29.1 µM [cytotoxic, single point]"},
      {"smiles": "Cc1ccc(S(=O)(=O)N(C)C)cc1NC(=O)COC(=O)c1ccc2c(=O)n3c(nc2c1)CCC3", "activity change, negative = cytotoxicity": "inactive: 19.7%"},
      {"smiles": "Cc1nn2c(NCCCN3CCOCC3)c3c(nc2c1-c1ccccc1)CCC3", "Potency": "inconclusive: 20.6 µM [cytotoxic, partial curve, poor fit]"},
      {"smiles": "CC(C)N(C(=O)c1ccc(-c2ccccc2F)cc1)C(C)C", "Potency": "inconclusive: 23.1 µM [cytotoxic, single point]"},
      {"smiles": "O=C(Nc1ccccc1)OCCOc1ccc(Br)cc1", "activity change, negative = cytotoxicity": "inactive: 0%"},
      {"smiles": "COc1ccccc1Nc1ncc2c(n1)CCN(CC(C)C)C2", "activity change, negative = cytotoxicity": "inactive: 12.1%"},
      {"smiles": "COCCOC(=O)c1c(C)oc2ccc(NS(=O)(=O)c3ccc(C)cc3)cc12", "Potency": "active: 8.2 µM"},
      {"smiles": "COc1ccc(CCN2CC(O)=C(c3nc(C)cs3)C2=N)cc1OC", "Potency": "inconclusive: 20.6 µM [cytotoxic, single point]"},
      {"smiles": "COc1cccc(CNC(=O)c2ccc3oc(=O)n(Cc4ccccc4)c3c2)c1", "activity change, negative = cytotoxicity": "inactive: 14.4%"},
      {"smiles": "CCOC(=O)N1CCC(N2Cc3cccc(C(=O)Nc4ccc(OCC)cc4)c3C2=O)CC1", "Potency": "inconclusive: 0.58 µM [cytotoxic, full curve]"},
      {"smiles": "COc1ccc(-c2noc(CCC(=O)NC3CCCCCC3)n2)cc1OC", "activity change, negative = cytotoxicity": "inactive: -20.6%"},
      {"smiles": "CCOC(=O)C1=CCN(S(=O)(=O)c2cccc(Cl)c2)C1c1ccc(C)cc1", "note": "(stereo not drawn)", "Potency": "inconclusive: 29.1 µM [cytotoxic, single point]"},
      {"smiles": "O=C(Nc1nnc(-c2ccccc2)o1)NC1CCCCC1", "Potency": "inconclusive: 16.4 µM [cytotoxic, single point]"},
      {"smiles": "COc1ccc(-c2nc(SCC(=O)NCc3nc4ccccc4n3C)n3[nH]c(=O)cc3n2)cc1", "Potency": "inconclusive: 9.2 µM [rising, partial curve]"},
      {"smiles": "COc1cccc(Nc2nc(-c3cccs3)nc3ccccc23)c1", "Potency": "inconclusive: 20.6 µM [cytotoxic, single point]"},
      {"smiles": "COc1ccc(NC(=O)C2CCN(c3nc4ccccc4[nH]3)CC2)cc1OC", "activity change, negative = cytotoxicity": "inconclusive: 35.1%"},
      {"smiles": "CC(C)(C)c1ccc(CC(=O)N2CCC2(C)C(=O)N2CCCCC2)cc1", "note": "(stereo not drawn)", "activity change, negative = cytotoxicity": "inactive: -0.587%"},
      {"smiles": "C=CCN(CC=C)C(=S)NC(=O)c1ccc(-c2ccccc2)cc1", "Potency": "active: 5.8 µM"},
      {"smiles": "O=C(Nc1ccccc1F)C1CCCC1", "Potency": "inconclusive: 5.8 µM [rising, full curve]"},
      {"smiles": "Cc1ccccc1-c1ncc(CN2CCN(C3CCCCC3)C(CCO)C2)cn1", "note": "(stereo not drawn)", "Potency": "inconclusive: 10.3 µM [cytotoxic, partial curve, poor fit]"},
      {"smiles": "O=C(CSc1nc2c(c(=O)[nH]1)CCC2)Nc1cccc(O)c1", "activity change, negative = cytotoxicity": "inactive: -8.87%"},
      {"smiles": "CC(NC(=O)c1cccc(Nc2nc3ccccc3n3nnnc23)c1)c1ccccc1", "note": "(stereo not drawn)", "Potency": "inconclusive: 4.61 µM [cytotoxic, full curve]"},
      {"smiles": "COc1ccc(S(=O)(=O)N2CCOC2CNC(=O)C(=O)NCc2ccncc2)cc1OC", "note": "(stereo not drawn)", "Potency": "inconclusive: 7.31 µM [rising, partial curve]"},
      {"smiles": "COc1ccc(C(=O)N/C(=C\\c2ccco2)C(=O)NCc2ccco2)cc1", "activity change, negative = cytotoxicity": "inactive: -1.58%"},
      {"smiles": "Cc1cc(=O)oc2c(C)c(OCC(=O)NCc3ccccn3)ccc12", "Potency": "inconclusive: 0.116 µM [rising, full curve, poor fit]"},
      {"smiles": "N#Cc1nc(-c2ccc(OCc3ccccc3)cc2)oc1NCc1cccnc1", "activity change, negative = cytotoxicity": "inactive: 0%"},
      {"smiles": "CCOc1ccc(-n2ccnc2SCC(=O)NCc2ccc3c(c2)OCO3)cc1", "Potency": "inconclusive: 18.4 µM [cytotoxic, single point]"},
      {"smiles": "Cc1ccc2c(C)c(C(=O)N3CCCC(C(N)=O)C3)oc2c1C", "note": "(stereo not drawn)", "activity change, negative = cytotoxicity": "inactive: -26.8%"},
      {"smiles": "COC(=O)CC1C(=O)NCCN1C(=S)Nc1ccccc1", "note": "(stereo not drawn)", "Potency": "inconclusive: 8.2 µM [rising, partial curve, poor fit]"},
      {"smiles": "CCCCCC(=O)Nc1nc2ccccc2[nH]1", "Potency": "inconclusive: 23.1 µM [cytotoxic, single point]"},
      {"smiles": "CN(C)c1ccc(/C=C/c2ccnc3ccccc23)c(F)c1", "Potency": "inconclusive: 23.1 µM [cytotoxic, single point]"},
      {"smiles": "CCCNC(=O)CCCCn1c(=S)[nH]c2c([nH]c3ccc(OC)cc32)c1=O", "activity change, negative = cytotoxicity": "inactive: 22.2%"}
    ]}
  ]
}
